# Measured values: the supplement of paper PMC11438910
# This is one part of the list. The signal is at background level for most entries.
# Assays:
# Assay in all cases: fluorescence intensity of antibody binding to polysaccharide-coupled beads; higher = stronger binding
# [1] = target: pneumococcal polysaccharide Pn11F
# [2] = target: pneumococcal polysaccharide Pn12A
# [3] = target: pneumococcal polysaccharide Pn12B
# [4] = target: pneumococcal polysaccharide Pn12F
# [5] = target: pneumococcal polysaccharide Pn13
# [6] = target: pneumococcal polysaccharide Pn14
# [7] = target: pneumococcal polysaccharide Pn15A
# [8] = target: pneumococcal polysaccharide Pn15B
# [9] = target: pneumococcal polysaccharide Pn15C
# [10] = target: pneumococcal polysaccharide Pn15F
# [11] = target: pneumococcal polysaccharide Pn16A
# [12] = target: pneumococcal polysaccharide Pn16F
# [13] = target: pneumococcal polysaccharide Pn17A
# [14] = target: pneumococcal polysaccharide Pn17F
# [15] = target: pneumococcal polysaccharide Pn18A
# [16] = target: pneumococcal polysaccharide Pn18B
# [17] = target: pneumococcal polysaccharide Pn18C
# [18] = target: pneumococcal polysaccharide Pn18F
# [19] = target: pneumococcal polysaccharide Pn19A
# [20] = target: pneumococcal polysaccharide Pn19B
# [21] = target: pneumococcal polysaccharide Pn19C
# [22] = target: pneumococcal polysaccharide Pn19F
# [23] = target: pneumococcal polysaccharide Pn2
# [24] = antibody concentration 2.8593 ng/mL
# [25] = antibody concentration 15.2894 ng/mL
# [26] = antibody concentration 81.7561 ng/mL
# [27] = antibody concentration 437.17 ng/mL
# [28] = antibody concentration 2337.65 ng/mL
# [29] = antibody concentration 12500 ng/mL
# [30] = antibody concentration 0.1 ng/mL
# [31] = antibody concentration 0.534724 ng/mL
binder,measurement,setting,value
4-80.3 (protein) chain 1: QVQLQESGPGLVKPSETLSLTCAVSGGSFSSYWWSWIRQPPGKGLEWIGEINGNSGSTNYNPSLKSRVTISKDASKNQFSLKLSSVTAADTAVYYCARYKNVWGRGVLVTVSS chain 2: DVVMTQSPLSLPITPGQPASISCRSSQSLVHSNGNTYLSWYQQKPGQPPRRLIYQVSNRDSGVPDRFSGSGAGTDFTLKISRVEAEDVGVYYCGQGTNVPTFGQGTKVEIK,fluorescence intensity,[1]; [24],12 MFI
same,fluorescence intensity,[1]; [25],13.5 MFI
same,fluorescence intensity,[1]; [26],15.5 MFI
same,fluorescence intensity,[1]; [27],13.2 MFI
same,fluorescence intensity,[1]; [28],19.5 MFI
same,fluorescence intensity,[1]; [29],38 MFI
same,fluorescence intensity,[2]; [30],16 MFI
same,fluorescence intensity,[2]; [31],14.5 MFI
same,fluorescence intensity,[2]; [24],15.5 MFI
same,fluorescence intensity,[2]; [25],15.5 MFI
same,fluorescence intensity,[2]; [26],14.8 MFI
same,fluorescence intensity,[2]; [27],16 MFI
same,fluorescence intensity,[2]; [28],26.5 MFI
same,fluorescence intensity,[2]; [29],76 MFI
same,fluorescence intensity,[3]; [30],17.8 MFI
same,fluorescence intensity,[3]; [31],17 MFI
same,fluorescence intensity,[3]; [24],15 MFI
same,fluorescence intensity,[3]; [25],16 MFI
same,fluorescence intensity,[3]; [26],15 MFI
same,fluorescence intensity,[3]; [27],17.5 MFI
same,fluorescence intensity,[3]; [28],26 MFI
same,fluorescence intensity,[3]; [29],77.5 MFI
same,fluorescence intensity,[4]; [30],18.5 MFI
same,fluorescence intensity,[4]; [31],18.2 MFI
same,fluorescence intensity,[4]; [24],19 MFI
same,fluorescence intensity,[4]; [25],19.2 MFI
same,fluorescence intensity,[4]; [26],19.5 MFI
same,fluorescence intensity,[4]; [27],23 MFI
same,fluorescence intensity,[4]; [28],51.5 MFI
same,fluorescence intensity,[4]; [29],224 MFI
same,fluorescence intensity,[5]; [30],20 MFI
same,fluorescence intensity,[5]; [31],20 MFI
same,fluorescence intensity,[5]; [24],18 MFI
same,fluorescence intensity,[5]; [25],19 MFI
same,fluorescence intensity,[5]; [26],18.8 MFI
same,fluorescence intensity,[5]; [27],19.5 MFI
same,fluorescence intensity,[5]; [28],29.5 MFI
same,fluorescence intensity,[5]; [29],90.5 MFI
same,fluorescence intensity,[6]; [30],14 MFI
same,fluorescence intensity,[6]; [31],17 MFI
same,fluorescence intensity,[6]; [24],15.2 MFI
same,fluorescence intensity,[6]; [25],15.5 MFI
same,fluorescence intensity,[6]; [26],16.5 MFI
same,fluorescence intensity,[6]; [27],28.2 MFI
same,fluorescence intensity,[6]; [28],124 MFI
same,fluorescence intensity,[6]; [29],844 MFI
same,fluorescence intensity,[7]; [30],13.2 MFI
same,fluorescence intensity,[7]; [31],11.5 MFI
same,fluorescence intensity,[7]; [24],12.5 MFI
same,fluorescence intensity,[7]; [25],12.5 MFI
same,fluorescence intensity,[7]; [26],13.5 MFI
same,fluorescence intensity,[7]; [27],15 MFI
same,fluorescence intensity,[7]; [28],15.8 MFI
same,fluorescence intensity,[7]; [29],24.5 MFI
same,fluorescence intensity,[8]; [30],18.5 MFI
same,fluorescence intensity,[8]; [31],19.5 MFI
same,fluorescence intensity,[8]; [24],19 MFI
same,fluorescence intensity,[8]; [25],19.5 MFI
same,fluorescence intensity,[8]; [26],20.2 MFI
same,fluorescence intensity,[8]; [27],25.8 MFI
same,fluorescence intensity,[8]; [28],31.5 MFI
same,fluorescence intensity,[8]; [29],68 MFI
same,fluorescence intensity,[9]; [30],17.5 MFI
same,fluorescence intensity,[9]; [31],16.5 MFI
same,fluorescence intensity,[9]; [24],17 MFI
same,fluorescence intensity,[9]; [25],15 MFI
same,fluorescence intensity,[9]; [26],16.5 MFI
same,fluorescence intensity,[9]; [27],19.5 MFI
same,fluorescence intensity,[9]; [28],20.5 MFI
same,fluorescence intensity,[9]; [29],34 MFI
same,fluorescence intensity,[10]; [30],17 MFI
same,fluorescence intensity,[10]; [31],17.8 MFI
same,fluorescence intensity,[10]; [24],17 MFI
same,fluorescence intensity,[10]; [25],17 MFI
same,fluorescence intensity,[10]; [26],18 MFI
same,fluorescence intensity,[10]; [27],18.5 MFI
same,fluorescence intensity,[10]; [28],25.5 MFI
same,fluorescence intensity,[10]; [29],46.5 MFI
same,fluorescence intensity,[11]; [30],13.5 MFI
same,fluorescence intensity,[11]; [31],15.5 MFI
same,fluorescence intensity,[11]; [24],14.5 MFI
same,fluorescence intensity,[11]; [25],16.8 MFI
same,fluorescence intensity,[11]; [26],11 MFI
same,fluorescence intensity,[11]; [27],14.5 MFI
same,fluorescence intensity,[11]; [28],22 MFI
same,fluorescence intensity,[11]; [29],52.5 MFI
same,fluorescence intensity,[12]; [30],24.8 MFI
same,fluorescence intensity,[12]; [31],25.5 MFI
same,fluorescence intensity,[12]; [24],21.8 MFI
same,fluorescence intensity,[12]; [25],24.2 MFI
same,fluorescence intensity,[12]; [26],26.8 MFI
same,fluorescence intensity,[12]; [27],30.2 MFI
same,fluorescence intensity,[12]; [28],36.5 MFI
same,fluorescence intensity,[12]; [29],71.5 MFI
same,fluorescence intensity,[13]; [30],21 MFI
same,fluorescence intensity,[13]; [31],20.5 MFI
same,fluorescence intensity,[13]; [24],20 MFI
same,fluorescence intensity,[13]; [25],19.5 MFI
same,fluorescence intensity,[13]; [26],21.5 MFI
same,fluorescence intensity,[13]; [27],22.2 MFI
same,fluorescence intensity,[13]; [28],24.5 MFI
same,fluorescence intensity,[13]; [29],36 MFI
same,fluorescence intensity,[14]; [30],24.8 MFI
same,fluorescence intensity,[14]; [31],26 MFI
same,fluorescence intensity,[14]; [24],26.5 MFI
same,fluorescence intensity,[14]; [25],25.5 MFI
same,fluorescence intensity,[14]; [26],26.5 MFI
same,fluorescence intensity,[14]; [27],29.5 MFI
same,fluorescence intensity,[14]; [28],31.5 MFI
same,fluorescence intensity,[14]; [29],39.5 MFI
same,fluorescence intensity,[15]; [30],25 MFI
same,fluorescence intensity,[15]; [31],23.5 MFI
same,fluorescence intensity,[15]; [24],25 MFI
same,fluorescence intensity,[15]; [25],23.5 MFI
same,fluorescence intensity,[15]; [26],24.5 MFI
same,fluorescence intensity,[15]; [27],25 MFI
same,fluorescence intensity,[15]; [28],29 MFI
same,fluorescence intensity,[15]; [29],49.5 MFI
same,fluorescence intensity,[16]; [30],32 MFI
same,fluorescence intensity,[16]; [31],30 MFI
same,fluorescence intensity,[16]; [24],30.5 MFI
same,fluorescence intensity,[16]; [25],32.5 MFI
same,fluorescence intensity,[16]; [26],31 MFI
same,fluorescence intensity,[16]; [27],36 MFI
same,fluorescence intensity,[16]; [28],45.5 MFI
same,fluorescence intensity,[16]; [29],90.8 MFI
same,fluorescence intensity,[17]; [30],19.5 MFI
same,fluorescence intensity,[17]; [31],19 MFI
same,fluorescence intensity,[17]; [24],18 MFI
same,fluorescence intensity,[17]; [25],20 MFI
same,fluorescence intensity,[17]; [26],20.8 MFI
same,fluorescence intensity,[17]; [27],24.5 MFI
same,fluorescence intensity,[17]; [28],36.8 MFI
same,fluorescence intensity,[17]; [29],83.5 MFI
same,fluorescence intensity,[18]; [30],22.5 MFI
same,fluorescence intensity,[18]; [31],23.5 MFI
same,fluorescence intensity,[18]; [24],23 MFI
same,fluorescence intensity,[18]; [25],24.5 MFI
same,fluorescence intensity,[18]; [26],26 MFI
same,fluorescence intensity,[18]; [27],30 MFI
same,fluorescence intensity,[18]; [28],43 MFI
same,fluorescence intensity,[18]; [29],94.8 MFI
same,fluorescence intensity,[19]; [30],17.5 MFI
same,fluorescence intensity,[19]; [31],19 MFI
same,fluorescence intensity,[19]; [24],20 MFI
same,fluorescence intensity,[19]; [25],17.8 MFI
same,fluorescence intensity,[19]; [26],19.2 MFI
same,fluorescence intensity,[19]; [27],23 MFI
same,fluorescence intensity,[19]; [28],30.8 MFI
same,fluorescence intensity,[19]; [29],81.5 MFI
same,fluorescence intensity,[20]; [30],30.8 MFI
same,fluorescence intensity,[20]; [31],29.5 MFI
same,fluorescence intensity,[20]; [24],30 MFI
same,fluorescence intensity,[20]; [25],28.8 MFI
same,fluorescence intensity,[20]; [26],29.8 MFI
same,fluorescence intensity,[20]; [27],31.5 MFI
same,fluorescence intensity,[20]; [28],111 MFI
same,fluorescence intensity,[20]; [29],801 MFI
same,fluorescence intensity,[21]; [30],28.2 MFI
same,fluorescence intensity,[21]; [31],23.8 MFI
same,fluorescence intensity,[21]; [24],24.5 MFI
same,fluorescence intensity,[21]; [25],26 MFI
same,fluorescence intensity,[21]; [26],25 MFI
same,fluorescence intensity,[21]; [27],32.5 MFI
same,fluorescence intensity,[21]; [28],78.5 MFI
same,fluorescence intensity,[21]; [29],503 MFI
same,fluorescence intensity,[22]; [30],24.5 MFI
same,fluorescence intensity,[22]; [31],26 MFI
same,fluorescence intensity,[22]; [24],25.5 MFI
same,fluorescence intensity,[22]; [25],29.5 MFI
same,fluorescence intensity,[22]; [26],27 MFI
same,fluorescence intensity,[22]; [27],32.8 MFI
same,fluorescence intensity,[22]; [28],47.5 MFI
same,fluorescence intensity,[22]; [29],128 MFI
same,fluorescence intensity,[23]; [30],20 MFI
same,fluorescence intensity,[23]; [31],20 MFI
same,fluorescence intensity,[23]; [24],20.8 MFI
same,fluorescence intensity,[23]; [25],19.5 MFI
same,fluorescence intensity,[23]; [26],22.5 MFI
same,fluorescence intensity,[23]; [27],22.5 MFI

# 38 entries from above, with tabs:
binder	measurement	setting	value
4-80.3 (protein) chain 1: QVQLQESGPGLVKPSETLSLTCAVSGGSFSSYWWSWIRQPPGKGLEWIGEINGNSGSTNYNPSLKSRVTISKDASKNQFSLKLSSVTAADTAVYYCARYKNVWGRGVLVTVSS chain 2: DVVMTQSPLSLPITPGQPASISCRSSQSLVHSNGNTYLSWYQQKPGQPPRRLIYQVSNRDSGVPDRFSGSGAGTDFTLKISRVEAEDVGVYYCGQGTNVPTFGQGTKVEIK	fluorescence intensity	[1]; [27]	13.2 MFI
same	fluorescence intensity	[1]; [28]	19.5 MFI
same	fluorescence intensity	[2]; [30]	16 MFI
same	fluorescence intensity	[2]; [24]	15.5 MFI
same	fluorescence intensity	[3]; [28]	26 MFI
same	fluorescence intensity	[4]; [27]	23 MFI
same	fluorescence intensity	[5]; [28]	29.5 MFI
same	fluorescence intensity	[7]; [24]	12.5 MFI
same	fluorescence intensity	[7]; [28]	15.8 MFI
same	fluorescence intensity	[7]; [29]	24.5 MFI
same	fluorescence intensity	[8]; [24]	19 MFI
same	fluorescence intensity	[8]; [26]	20.2 MFI
same	fluorescence intensity	[8]; [28]	31.5 MFI
same	fluorescence intensity	[8]; [29]	68 MFI
same	fluorescence intensity	[9]; [24]	17 MFI
same	fluorescence intensity	[9]; [27]	19.5 MFI
same	fluorescence intensity	[9]; [28]	20.5 MFI
same	fluorescence intensity	[10]; [26]	18 MFI
same	fluorescence intensity	[10]; [27]	18.5 MFI
same	fluorescence intensity	[11]; [26]	11 MFI
same	fluorescence intensity	[11]; [29]	52.5 MFI
same	fluorescence intensity	[12]; [31]	25.5 MFI
same	fluorescence intensity	[13]; [29]	36 MFI
same	fluorescence intensity	[14]; [30]	24.8 MFI
same	fluorescence intensity	[14]; [29]	39.5 MFI
same	fluorescence intensity	[15]; [30]	25 MFI
same	fluorescence intensity	[15]; [24]	25 MFI
same	fluorescence intensity	[16]; [31]	30 MFI
same	fluorescence intensity	[17]; [30]	19.5 MFI
same	fluorescence intensity	[18]; [26]	26 MFI
same	fluorescence intensity	[19]; [30]	17.5 MFI
same	fluorescence intensity	[19]; [31]	19 MFI
same	fluorescence intensity	[19]; [24]	20 MFI
same	fluorescence intensity	[20]; [30]	30.8 MFI
same	fluorescence intensity	[21]; [30]	28.2 MFI
same	fluorescence intensity	[22]; [30]	24.5 MFI
same	fluorescence intensity	[22]; [26]	27 MFI
same	fluorescence intensity	[22]; [29]	128 MFI
